Results from publication PMC11369092.
These are yes or no findings as the source states them, for the method shown. Binding seen in cells or lysates may run through a third protein. Here binding means that the protein was enriched with, or labelled near, the bait; the list need not be complete. Tags and fused reporters may be left off the sequences shown.

Molecular target: T1, Flag-SMYD5 (immunoprecipitated from cells) (UniProt Q6GMV2)
T1 sequence: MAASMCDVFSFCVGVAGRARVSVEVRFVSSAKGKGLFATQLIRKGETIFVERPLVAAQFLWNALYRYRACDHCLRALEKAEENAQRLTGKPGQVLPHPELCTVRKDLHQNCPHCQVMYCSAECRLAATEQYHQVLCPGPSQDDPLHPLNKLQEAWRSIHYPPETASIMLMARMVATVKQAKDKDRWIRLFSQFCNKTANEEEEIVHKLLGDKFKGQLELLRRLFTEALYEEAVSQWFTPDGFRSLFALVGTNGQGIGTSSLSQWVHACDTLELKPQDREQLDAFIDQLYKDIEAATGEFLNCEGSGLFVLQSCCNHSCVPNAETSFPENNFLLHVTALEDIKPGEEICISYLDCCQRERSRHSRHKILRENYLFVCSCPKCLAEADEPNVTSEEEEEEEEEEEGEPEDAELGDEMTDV
Assay: affinity purification with mass spectrometry; Flag-SMYD5 immunoprecipitation from HeLa cytosol extracts, MS identification of interacting proteins

binding: binds
Substance: RPL40 (endogenous) (human (endogenous in HeLa))
